Experimental data taken from the supplement of paper PMC10849652.
This is one part of the list. Residues, ends and D or L forms follow the SMILES beside them. *: point of attachment. Cbz = O=C(OCc1ccccc1)*

The chains behind the UniProt entries cited, without tags or fusion partners. Where a name states a change or a piece, a line headed by the entry shows the natural chain unless it says otherwise.
UniProt Q9NNZ3: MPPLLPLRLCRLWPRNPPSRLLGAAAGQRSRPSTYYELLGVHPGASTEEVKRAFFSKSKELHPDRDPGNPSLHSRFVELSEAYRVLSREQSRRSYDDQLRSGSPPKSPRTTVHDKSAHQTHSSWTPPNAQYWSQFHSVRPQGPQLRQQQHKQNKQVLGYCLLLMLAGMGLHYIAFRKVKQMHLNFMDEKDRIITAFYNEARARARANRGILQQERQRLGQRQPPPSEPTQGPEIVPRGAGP
UniProt O14576, whole entry, looked up: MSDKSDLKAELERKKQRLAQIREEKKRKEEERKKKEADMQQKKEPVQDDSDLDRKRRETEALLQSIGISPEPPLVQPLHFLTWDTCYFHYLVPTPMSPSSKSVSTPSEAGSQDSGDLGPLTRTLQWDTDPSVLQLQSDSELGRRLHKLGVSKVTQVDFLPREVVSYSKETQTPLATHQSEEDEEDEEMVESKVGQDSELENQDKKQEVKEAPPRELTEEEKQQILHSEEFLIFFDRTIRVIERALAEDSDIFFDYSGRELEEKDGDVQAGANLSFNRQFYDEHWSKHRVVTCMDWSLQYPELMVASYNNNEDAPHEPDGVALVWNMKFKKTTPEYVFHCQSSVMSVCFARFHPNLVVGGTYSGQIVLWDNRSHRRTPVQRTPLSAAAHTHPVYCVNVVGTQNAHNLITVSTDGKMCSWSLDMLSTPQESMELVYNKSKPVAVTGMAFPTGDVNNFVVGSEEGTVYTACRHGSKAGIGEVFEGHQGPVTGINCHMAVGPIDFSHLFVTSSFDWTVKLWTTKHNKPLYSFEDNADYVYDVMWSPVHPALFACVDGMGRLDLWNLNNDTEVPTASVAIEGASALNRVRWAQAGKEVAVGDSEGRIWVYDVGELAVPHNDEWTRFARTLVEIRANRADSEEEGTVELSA
UniProt P51808: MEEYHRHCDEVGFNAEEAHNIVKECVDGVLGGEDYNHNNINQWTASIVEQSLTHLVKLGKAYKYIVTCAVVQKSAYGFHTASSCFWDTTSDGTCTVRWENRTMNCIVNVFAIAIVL
UniProt O95147: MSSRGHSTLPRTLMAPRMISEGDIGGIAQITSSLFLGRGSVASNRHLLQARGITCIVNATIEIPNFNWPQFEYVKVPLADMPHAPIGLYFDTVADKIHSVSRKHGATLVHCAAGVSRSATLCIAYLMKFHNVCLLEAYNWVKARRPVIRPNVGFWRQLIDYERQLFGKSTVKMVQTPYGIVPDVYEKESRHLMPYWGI
UniProt Q92608: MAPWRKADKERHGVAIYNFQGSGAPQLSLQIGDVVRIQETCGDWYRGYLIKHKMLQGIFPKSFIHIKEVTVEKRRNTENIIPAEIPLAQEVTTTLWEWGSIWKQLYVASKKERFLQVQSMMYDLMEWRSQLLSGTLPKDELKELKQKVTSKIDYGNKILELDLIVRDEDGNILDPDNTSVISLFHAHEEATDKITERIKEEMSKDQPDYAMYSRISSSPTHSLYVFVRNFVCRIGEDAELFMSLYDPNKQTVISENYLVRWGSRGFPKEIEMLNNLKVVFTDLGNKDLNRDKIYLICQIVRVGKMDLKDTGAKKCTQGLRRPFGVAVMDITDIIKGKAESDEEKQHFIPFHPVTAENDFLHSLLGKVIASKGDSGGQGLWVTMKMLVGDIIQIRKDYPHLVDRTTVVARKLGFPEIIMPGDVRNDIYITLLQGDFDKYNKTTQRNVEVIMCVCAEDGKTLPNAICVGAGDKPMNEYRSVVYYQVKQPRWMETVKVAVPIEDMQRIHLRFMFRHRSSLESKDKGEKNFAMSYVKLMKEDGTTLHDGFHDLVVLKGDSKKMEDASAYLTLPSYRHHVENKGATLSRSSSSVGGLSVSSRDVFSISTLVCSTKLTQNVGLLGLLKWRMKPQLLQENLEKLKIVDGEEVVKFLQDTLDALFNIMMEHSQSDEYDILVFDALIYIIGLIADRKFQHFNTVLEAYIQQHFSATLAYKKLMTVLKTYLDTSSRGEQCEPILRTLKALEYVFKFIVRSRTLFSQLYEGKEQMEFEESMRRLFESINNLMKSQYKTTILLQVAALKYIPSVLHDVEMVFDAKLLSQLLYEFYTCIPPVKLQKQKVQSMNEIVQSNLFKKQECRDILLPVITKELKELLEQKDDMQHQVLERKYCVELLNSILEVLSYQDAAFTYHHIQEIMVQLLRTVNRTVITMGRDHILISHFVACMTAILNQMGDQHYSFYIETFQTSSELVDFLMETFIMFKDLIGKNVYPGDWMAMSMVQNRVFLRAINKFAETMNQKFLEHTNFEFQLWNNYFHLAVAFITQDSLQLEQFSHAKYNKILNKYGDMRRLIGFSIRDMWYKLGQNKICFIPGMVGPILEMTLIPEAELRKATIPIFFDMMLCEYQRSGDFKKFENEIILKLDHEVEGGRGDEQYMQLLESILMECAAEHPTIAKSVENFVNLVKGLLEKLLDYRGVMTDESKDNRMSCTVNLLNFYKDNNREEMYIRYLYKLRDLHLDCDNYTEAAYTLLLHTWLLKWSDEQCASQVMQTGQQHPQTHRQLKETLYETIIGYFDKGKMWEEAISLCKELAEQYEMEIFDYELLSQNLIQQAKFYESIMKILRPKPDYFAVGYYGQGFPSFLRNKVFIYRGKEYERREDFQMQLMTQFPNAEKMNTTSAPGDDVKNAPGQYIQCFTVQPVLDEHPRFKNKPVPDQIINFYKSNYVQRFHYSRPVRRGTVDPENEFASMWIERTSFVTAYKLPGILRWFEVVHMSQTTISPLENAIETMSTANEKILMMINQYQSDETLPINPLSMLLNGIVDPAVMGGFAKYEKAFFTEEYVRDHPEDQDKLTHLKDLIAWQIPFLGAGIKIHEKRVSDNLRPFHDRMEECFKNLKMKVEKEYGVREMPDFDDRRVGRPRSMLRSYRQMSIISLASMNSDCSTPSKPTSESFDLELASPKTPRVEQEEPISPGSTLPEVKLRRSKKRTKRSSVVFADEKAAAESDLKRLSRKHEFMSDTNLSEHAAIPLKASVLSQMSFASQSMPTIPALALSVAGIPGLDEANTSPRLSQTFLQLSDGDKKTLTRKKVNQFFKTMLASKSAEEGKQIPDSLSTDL
UniProt P25686: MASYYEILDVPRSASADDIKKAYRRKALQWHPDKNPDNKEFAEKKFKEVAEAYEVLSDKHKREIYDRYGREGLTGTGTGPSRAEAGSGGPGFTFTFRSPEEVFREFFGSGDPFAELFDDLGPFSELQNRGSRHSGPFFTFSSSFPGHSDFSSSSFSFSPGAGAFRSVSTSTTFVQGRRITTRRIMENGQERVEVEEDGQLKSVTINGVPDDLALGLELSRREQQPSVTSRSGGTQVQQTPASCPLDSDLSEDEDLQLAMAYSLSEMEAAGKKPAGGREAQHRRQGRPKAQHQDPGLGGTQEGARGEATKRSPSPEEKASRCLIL
UniProt Q6XUX3: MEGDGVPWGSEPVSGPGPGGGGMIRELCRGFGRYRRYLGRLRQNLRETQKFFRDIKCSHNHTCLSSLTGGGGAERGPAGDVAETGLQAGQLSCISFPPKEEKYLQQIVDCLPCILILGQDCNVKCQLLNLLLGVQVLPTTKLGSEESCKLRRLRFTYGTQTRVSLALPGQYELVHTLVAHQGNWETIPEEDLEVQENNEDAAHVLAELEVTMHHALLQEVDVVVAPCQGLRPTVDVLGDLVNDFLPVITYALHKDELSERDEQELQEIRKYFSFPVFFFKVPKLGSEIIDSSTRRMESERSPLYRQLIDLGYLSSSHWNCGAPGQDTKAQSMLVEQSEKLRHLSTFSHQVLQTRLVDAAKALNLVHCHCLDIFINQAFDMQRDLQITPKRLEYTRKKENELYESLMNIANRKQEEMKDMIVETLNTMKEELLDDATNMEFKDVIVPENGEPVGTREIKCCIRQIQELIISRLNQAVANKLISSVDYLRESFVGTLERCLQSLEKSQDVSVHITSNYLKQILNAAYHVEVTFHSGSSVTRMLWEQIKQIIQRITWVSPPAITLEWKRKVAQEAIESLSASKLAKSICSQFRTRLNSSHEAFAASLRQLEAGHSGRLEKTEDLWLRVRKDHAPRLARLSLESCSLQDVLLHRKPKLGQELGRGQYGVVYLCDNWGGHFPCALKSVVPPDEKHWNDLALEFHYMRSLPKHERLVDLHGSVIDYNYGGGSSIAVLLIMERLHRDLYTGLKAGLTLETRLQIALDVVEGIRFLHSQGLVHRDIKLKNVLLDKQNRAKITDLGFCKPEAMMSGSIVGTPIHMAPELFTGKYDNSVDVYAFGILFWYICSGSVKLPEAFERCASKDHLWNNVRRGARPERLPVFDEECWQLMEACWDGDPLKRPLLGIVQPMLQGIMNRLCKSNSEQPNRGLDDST

Assays:
Experiment in all cases: log2 fold change, soluble protein after heating vs DMSO (PISA); higher = thermal stabilisation; K562 cells, 10 uM, 30 min; active = over 0.2 and 3.5 SD of the protein, either way, in both replicates (recomputed)
ralimetinib = compound: CC(C)(C)Cn1c(N)nc2ccc(-c3[nH]c(C(C)(C)C)nc3-c3ccc(F)cc3)nc21 [ralimetinib]
Method in brief: (§1)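 K562 cells at 2×10^6 cells/mL were given 10 μM compound for 30 min. Aliquots then went through 3 min of heating across 48°C-58°C, were pooled, and were extracted in PBS with 0.5% NP-40 at 4°C, and the supernatant after 21,000xg for 90 min was quantified by TMTpro 16plex LC-MS/MS with channel sums equalised. Thermal stability relative to control samples, from duplicates, is given as log2 fold change.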

[1] = compound: CC(C)C[C@@H](C=O)NC(=O)[C@H](CC(C)C)NC(=O)[C@H](CC(C)C)NC(=O)OCc1ccccc1
Method in brief: as §1

[2] = compound: CC1=C(C=C(C=C1)NC(=O)C2=CC(=CC=C2)N(C)C)NC(=O)C3=CC=C(C=C3)O
Method in brief: as §1

[3] = compound: CC1=CC=C(C=C1)SC2=C3C=C(SC3=CN=C2)C(=O)N
Method in brief: as §1

[4] = compound: CCCS(=O)(=O)Nc1ccc(F)c(C(=O)c2c[nH]c3ncc(Cl)cc23)c1F
Method in brief: as §1

[5] = compound: CC(C)(O)CC(=O)NCCn1ccc2ncnc(Nc3ccc(Oc4cccc(C(F)(F)F)c4)c(Cl)c3)c21
Method in brief: as §1

Nexturastat A = compound: CCCCN(Cc1ccc(C(=O)NO)cc1)C(=O)Nc1ccccc1 [Nexturastat A]
Method in brief: as §1

vemurafenib = compound: CCCS(=O)(=O)Nc1ccc(F)c(C(=O)c2c[nH]c3ncc(-c4ccc(Cl)cc4)cc23)c1F [vemurafenib]
Method in brief: as §1

ibrutinib = compound: C=CC(=O)N1CCC[C@@H](n2nc(-c3ccc(Oc4ccccc4)cc3)c3c(N)ncnc32)C1 [ibrutinib]
Method in brief: as §1

[6] = compound: CC(=O)c1cnc2ccc(-c3cc(Cl)c(O)c(Cl)c3)nc2c1N[C@H]1CC[C@H](CN(C)C)CC1
Method in brief: as §1

[7] = compound: CC1=C(C(CC(=O)N1)C2=CC=C(C=C2)C(F)(F)F)C(=O)NC3=C(C=C4C(=C3)C=NN4)F
Method in brief: as §1

barasertib = compound: CCN(CCCOc1ccc2c(Nc3cc(CC(=O)Nc4cccc(F)c4)[nH]n3)ncnc2c1)CCOP(=O)(O)O [barasertib]
Method in brief: as §1

[8] = compound: CC(C)C1=C2N=C(C=C(N2N=C1)NCC3=CC=CC=C3)NCCCCCCN
Method in brief: as §1

[9] = compound: CC1=C(C2=C(C=C1)C(=O)C3=CC=CC=C3N2CCCN)C
Method in brief: as §1

[10] = compound: CCCc1cc(C)[nH]c(=O)c1CNC(=O)c1cc(-c2ccnc(N3CCN(C)CC3)c2)cc2c1cnn2C(C)C
Method in brief: as §1

givinostat = compound: CCN(CC)Cc1ccc2cc(COC(=O)Nc3ccc(C(=O)NO)cc3)ccc2c1 [givinostat]
Method in brief: as §1

IRAK-1-4 Inhibitor I = compound: C1COCCN1CCN2C3=CC=CC=C3N=C2NC(=O)C4=CC(=CC=C4)[N+](=O)[O-] [IRAK-1-4 Inhibitor I]
Method in brief: as §1

pinometostat = compound: CC(C)N(C[C@H]1O[C@@H](n2cnc3c(N)ncnc32)[C@H](O)[C@@H]1O)[C@H]1C[C@@H](CCc2nc3cc(C(C)(C)C)ccc3[nH]2)C1 [pinometostat]
Method in brief: as §1

[11] = compound: CC1=C(C=C(C=C1)NC(=O)C2=CC(=CC=C2)C(C)(C)C#N)NC3=CC4=C(C=C3)N=CN(C4=O)C
Method in brief: as §1

[12] = compound: CC1=NC(=CC=C1)C2=C(N=C(N2)C(C)(C)C)C3=CC4=NC=CN=C4C=C3
Method in brief: as §1

Measured: log2 fold change

DNAJC4 (UniProt Q9NNZ3)
inactive: ralimetinib -0.103 | [1] 0.287 | [2] -0.015 | [3] -0.014 | [4] -0.061

DYNC1I1 (UniProt O14576)
inactive: ralimetinib 0.09 | [5] 0.006 | [1] 0.004 | [2] -0.189 | [3] -0.088 | Nexturastat A 0.347 | vemurafenib 0.078 | [4] 0.022

DYNLT3 (UniProt P51808)
inactive: ibrutinib 0.065 | [6] 0.028 | [7] 0.045 | barasertib -0.018

DUSP14 (UniProt O95147)
inactive: ibrutinib 0.068 | [6] -0.043 | [5] -0.057 | [8] 0.042 | [9] -0.181 | Nexturastat A -0.217 | vemurafenib 0.072 | [10] 0.088 | givinostat 0.273 | barasertib -0.043

DOCK2 (UniProt Q92608)
inactive: ralimetinib 0.394 | [1] 0.334 | [2] -0.264

DNAJB2 (UniProt P25686)
inactive: ralimetinib 0.071 | [5] -0.19 | [1] 0.076 | [2] 0 | [3] -0.207 | Nexturastat A 0.039 | [4] -0.143

DOCK11, A0A0J9YW64
inactive: IRAK-1-4 Inhibitor I -0.082 | pinometostat 0.352 | [11] 0.192 | [12] -0.169 | [10] -0.088

DSTYK (UniProt Q6XUX3)
inactive: ibrutinib -0.133 | [5] -0.172 | [8] 0.046 | [7] 0.041 | [9] 0.081 | Nexturastat A 0.182 | vemurafenib -0.037 | givinostat 0.02 | barasertib 0.056
